No constants are given. Whether binding was seen depends on the method and setting. Binding seen in cells or lysates may run through a third protein. Some results given as binding are weak or reduced against the parent protein; the word gives no strength. Tags and fused reporters may be left off the sequences shown.
These substances were tested against T1, HA-tagged syndecan-1 (human) (UniProt P18827) (assay: co-IP).
T1 sequence: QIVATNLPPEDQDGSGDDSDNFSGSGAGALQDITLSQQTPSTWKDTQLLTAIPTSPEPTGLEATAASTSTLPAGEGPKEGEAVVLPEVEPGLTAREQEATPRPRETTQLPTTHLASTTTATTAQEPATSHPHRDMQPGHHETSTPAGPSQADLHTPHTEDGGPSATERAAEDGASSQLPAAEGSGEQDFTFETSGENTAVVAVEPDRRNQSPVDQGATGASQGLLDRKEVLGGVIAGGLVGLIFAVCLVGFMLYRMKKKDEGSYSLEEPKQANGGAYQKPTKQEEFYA

Sequences of proteins named here, by UniProt entry; tags and fusion partners are left off. Residues count along the entry.
UniProt Q14247: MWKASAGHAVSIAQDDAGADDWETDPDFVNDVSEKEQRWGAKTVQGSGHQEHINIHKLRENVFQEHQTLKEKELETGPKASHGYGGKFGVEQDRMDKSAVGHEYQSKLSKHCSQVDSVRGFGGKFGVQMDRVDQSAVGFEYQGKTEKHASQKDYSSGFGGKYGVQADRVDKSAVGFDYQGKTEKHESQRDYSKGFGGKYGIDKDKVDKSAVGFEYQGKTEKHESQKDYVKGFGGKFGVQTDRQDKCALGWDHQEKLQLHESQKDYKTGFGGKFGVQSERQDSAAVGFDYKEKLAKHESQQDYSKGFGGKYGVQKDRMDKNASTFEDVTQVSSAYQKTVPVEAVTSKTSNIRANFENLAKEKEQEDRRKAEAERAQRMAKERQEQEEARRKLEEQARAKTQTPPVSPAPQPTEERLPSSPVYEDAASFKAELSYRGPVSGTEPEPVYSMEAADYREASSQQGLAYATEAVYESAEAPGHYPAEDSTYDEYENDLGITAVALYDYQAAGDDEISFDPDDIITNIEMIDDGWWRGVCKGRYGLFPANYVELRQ
UniProt Q05397: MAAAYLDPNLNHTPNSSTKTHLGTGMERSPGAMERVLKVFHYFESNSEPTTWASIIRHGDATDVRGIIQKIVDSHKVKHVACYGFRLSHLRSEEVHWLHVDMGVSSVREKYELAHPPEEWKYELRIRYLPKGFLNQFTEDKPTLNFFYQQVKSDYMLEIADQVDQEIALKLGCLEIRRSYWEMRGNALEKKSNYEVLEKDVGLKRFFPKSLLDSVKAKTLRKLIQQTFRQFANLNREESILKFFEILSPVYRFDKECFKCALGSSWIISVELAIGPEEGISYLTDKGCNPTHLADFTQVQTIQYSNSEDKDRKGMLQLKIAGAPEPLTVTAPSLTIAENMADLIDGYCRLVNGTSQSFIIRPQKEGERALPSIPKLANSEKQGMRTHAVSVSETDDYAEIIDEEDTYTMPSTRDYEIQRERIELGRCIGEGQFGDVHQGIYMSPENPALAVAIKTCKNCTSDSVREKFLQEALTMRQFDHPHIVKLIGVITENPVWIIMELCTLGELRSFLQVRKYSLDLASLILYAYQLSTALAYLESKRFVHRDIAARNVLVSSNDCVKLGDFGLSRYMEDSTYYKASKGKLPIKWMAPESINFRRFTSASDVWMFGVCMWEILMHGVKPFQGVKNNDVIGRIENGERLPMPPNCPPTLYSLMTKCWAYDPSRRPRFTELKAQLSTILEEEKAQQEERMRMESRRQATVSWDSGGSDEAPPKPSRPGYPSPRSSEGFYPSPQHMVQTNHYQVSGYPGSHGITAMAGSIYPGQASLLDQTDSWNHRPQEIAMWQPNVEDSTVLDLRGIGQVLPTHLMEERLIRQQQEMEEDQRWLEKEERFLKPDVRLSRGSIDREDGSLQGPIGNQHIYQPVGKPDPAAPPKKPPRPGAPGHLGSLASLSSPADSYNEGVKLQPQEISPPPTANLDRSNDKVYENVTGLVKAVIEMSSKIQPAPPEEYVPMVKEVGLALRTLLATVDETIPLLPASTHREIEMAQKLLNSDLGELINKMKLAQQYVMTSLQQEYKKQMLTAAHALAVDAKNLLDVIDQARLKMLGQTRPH
UniProt P05106, residues 27-788: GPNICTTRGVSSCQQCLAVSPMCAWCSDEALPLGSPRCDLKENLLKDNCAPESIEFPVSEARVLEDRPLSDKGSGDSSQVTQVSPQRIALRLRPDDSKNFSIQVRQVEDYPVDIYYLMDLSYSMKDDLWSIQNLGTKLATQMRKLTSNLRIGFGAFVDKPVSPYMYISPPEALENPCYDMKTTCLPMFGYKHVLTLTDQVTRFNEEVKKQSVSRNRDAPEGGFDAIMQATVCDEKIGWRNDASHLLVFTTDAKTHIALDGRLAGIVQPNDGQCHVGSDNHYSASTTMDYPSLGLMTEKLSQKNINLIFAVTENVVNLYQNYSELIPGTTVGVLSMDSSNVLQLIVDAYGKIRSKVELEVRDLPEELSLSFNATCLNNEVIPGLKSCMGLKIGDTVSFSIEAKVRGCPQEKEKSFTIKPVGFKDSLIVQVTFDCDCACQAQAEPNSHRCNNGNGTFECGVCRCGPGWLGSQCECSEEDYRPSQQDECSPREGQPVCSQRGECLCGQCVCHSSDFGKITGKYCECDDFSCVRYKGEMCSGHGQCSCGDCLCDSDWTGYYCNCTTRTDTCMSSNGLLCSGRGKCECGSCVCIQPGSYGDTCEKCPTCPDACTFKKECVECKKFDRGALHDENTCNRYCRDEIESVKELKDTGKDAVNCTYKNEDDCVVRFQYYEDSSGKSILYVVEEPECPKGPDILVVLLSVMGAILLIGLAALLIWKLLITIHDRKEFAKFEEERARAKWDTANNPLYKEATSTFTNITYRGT
UniProt P35580: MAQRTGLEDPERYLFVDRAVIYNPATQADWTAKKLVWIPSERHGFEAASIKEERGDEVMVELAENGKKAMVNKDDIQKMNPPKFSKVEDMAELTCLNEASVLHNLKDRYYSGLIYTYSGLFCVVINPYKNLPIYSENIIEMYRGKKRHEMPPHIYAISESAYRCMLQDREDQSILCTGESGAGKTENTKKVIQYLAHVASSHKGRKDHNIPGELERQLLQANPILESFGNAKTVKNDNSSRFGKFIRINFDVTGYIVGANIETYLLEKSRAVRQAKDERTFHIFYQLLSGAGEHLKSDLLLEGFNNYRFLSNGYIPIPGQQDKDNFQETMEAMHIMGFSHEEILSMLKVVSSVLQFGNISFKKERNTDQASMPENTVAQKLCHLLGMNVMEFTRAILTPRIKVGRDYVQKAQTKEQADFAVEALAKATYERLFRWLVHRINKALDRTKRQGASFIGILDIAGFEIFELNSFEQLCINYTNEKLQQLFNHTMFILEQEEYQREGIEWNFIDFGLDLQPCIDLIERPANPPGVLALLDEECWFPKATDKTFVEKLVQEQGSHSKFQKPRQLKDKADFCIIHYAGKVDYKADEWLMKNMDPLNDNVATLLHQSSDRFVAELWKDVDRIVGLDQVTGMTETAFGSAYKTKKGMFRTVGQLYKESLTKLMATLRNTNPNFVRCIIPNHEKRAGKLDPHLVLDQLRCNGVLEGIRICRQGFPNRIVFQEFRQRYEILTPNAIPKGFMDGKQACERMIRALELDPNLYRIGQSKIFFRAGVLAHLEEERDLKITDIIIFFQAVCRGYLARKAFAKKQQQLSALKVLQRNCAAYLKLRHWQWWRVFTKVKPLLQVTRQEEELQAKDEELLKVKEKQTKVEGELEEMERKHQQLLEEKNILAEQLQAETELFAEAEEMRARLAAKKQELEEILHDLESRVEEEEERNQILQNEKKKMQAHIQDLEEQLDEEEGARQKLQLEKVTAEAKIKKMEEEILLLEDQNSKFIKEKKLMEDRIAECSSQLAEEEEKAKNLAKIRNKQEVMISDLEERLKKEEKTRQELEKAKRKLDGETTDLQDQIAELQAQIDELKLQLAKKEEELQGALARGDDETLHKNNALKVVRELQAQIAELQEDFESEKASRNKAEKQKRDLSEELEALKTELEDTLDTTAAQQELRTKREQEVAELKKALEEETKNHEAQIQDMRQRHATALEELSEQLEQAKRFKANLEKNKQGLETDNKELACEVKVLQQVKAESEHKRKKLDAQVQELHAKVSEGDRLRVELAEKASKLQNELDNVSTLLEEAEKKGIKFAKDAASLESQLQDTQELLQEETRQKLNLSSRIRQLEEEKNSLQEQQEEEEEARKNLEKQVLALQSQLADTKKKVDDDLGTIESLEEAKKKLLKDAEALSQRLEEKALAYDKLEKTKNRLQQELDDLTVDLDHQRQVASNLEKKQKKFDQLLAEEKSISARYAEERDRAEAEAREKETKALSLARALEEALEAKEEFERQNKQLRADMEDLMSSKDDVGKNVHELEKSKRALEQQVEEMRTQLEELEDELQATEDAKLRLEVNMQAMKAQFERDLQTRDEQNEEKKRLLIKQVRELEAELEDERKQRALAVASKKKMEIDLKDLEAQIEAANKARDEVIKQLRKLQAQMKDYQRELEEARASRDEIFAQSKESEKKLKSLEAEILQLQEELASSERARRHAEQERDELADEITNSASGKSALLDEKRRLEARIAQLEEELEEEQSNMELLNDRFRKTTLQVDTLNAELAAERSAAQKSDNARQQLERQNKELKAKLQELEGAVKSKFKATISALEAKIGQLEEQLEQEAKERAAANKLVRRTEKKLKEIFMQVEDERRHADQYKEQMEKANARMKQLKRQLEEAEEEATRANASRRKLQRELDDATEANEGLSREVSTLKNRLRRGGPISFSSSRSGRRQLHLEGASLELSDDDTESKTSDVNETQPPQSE

binding	Substance
binds	cortactin (from UniProt Q14247 1-550)
binds	focal adhesion kinase (from UniProt Q05397 1-1052) (enzyme)
binds	integrin β3 (from UniProt P05106 27-788) (receptor)
binds	non-muscle myosin IIb (from UniProt P35580 1-1976)

— article doi:10.1101/2020.05.09.085894
